In paper PMC12848035:
No constants are given. Whether binding was seen depends on the method and setting. Binding seen in cells or lysates may run through a third protein. Some binding calls cover weakened binding; strength is not graded here. Tags and fused reporters may be left off the sequences shown.

What was measured:
Experiment in all cases: co-IP; HEK293T cells transfected with tagged HHIPL2 and HNRNPC constructs; lysate in IP lysis buffer; anti-FLAG magnetic beads 4 h at 4 °C; Western blot
[1] = biological target: HNRNPC-FLAG (full-length, WT) (human) (UniProt P07910)
[2] = biological target: T1, HNRNPC-ΔRRM (human) (UniProt P07910)
T1 sequence: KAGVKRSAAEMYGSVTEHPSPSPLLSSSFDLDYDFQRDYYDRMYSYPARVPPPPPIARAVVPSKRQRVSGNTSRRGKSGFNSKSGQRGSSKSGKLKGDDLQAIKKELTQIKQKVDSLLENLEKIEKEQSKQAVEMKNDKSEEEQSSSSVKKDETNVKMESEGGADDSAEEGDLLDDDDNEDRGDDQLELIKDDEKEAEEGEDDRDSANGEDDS

[3] = biological target: T2, HNRNPC-RRM (human) (UniProt P07910)
T2 sequence: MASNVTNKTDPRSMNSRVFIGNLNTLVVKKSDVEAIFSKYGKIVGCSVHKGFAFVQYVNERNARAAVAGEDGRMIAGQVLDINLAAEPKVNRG

- binding [1]: binds
- binding [2]: binds
- binding [3]: no binding
B1: HHIPL2-MYC (protein, UniProt Q6UWX4 42-724)
chain: HPQCLDYGPPFQPPLHLEFCSDYESFGCCDQHKDRRIAARYWDIMEYFDLKRHELCGDYIKDILCQECSPYAAHLYDAENTQTPLRNLPGLCSDYCSAFHSNCHSAISLLTNDRGLQESHGRDGTRFCHLLDLPDKDYCFPNVLRNDYLNRHLGMVAQDPQGCLQLCLSEVANGLRNPVSMVHAGDGTHRFFVAEQVGVVWVYLPDGSRLEQPFLDLKNIVLTTPWIGDERGFLGLAFHPKFRHNRKFYIYYSCLDKKKVEKIRISEMKVSRADPNKADLKSERVILEIEEPASNHNGGQLLFGLDGYMYIFTGDGGQAGDPFGLFGNAQNKSSLLGKVLRIDVNRAGSHGKRYRVPSDNPFVSEPGAHPAIYAYGIRNMWRCAVDRGDPITRQGRGRIFCGDVGQNRFEEVDLILKGGNYGWRAKEGFACYDKKLCHNASLDDVLPIYAYGHAVGKSVTGGYVYRGCESPNLNGLYIFGDFMSGRLMALQEDRKNKKWKKQDLCLGSTTSCAFPGLISTHSKFIISFAEDEAGELYFLATSYPSAYAPRGSIYKFVDPSRRAPPGKCKYKPVPVRTKSKRIPFRPLAKTVLDLLKEQSEKAARKSSSATLASGPAQGLSEKGSSKKLASPTSSKNTLRGPGTKKKARVGPHVRQGKRRKSLKSHSGRMRPSAEQKRAGRSLP
